These are yes or no findings as the source states them, for the method shown. For some of these results: Binding seen in cells or lysates may run through a third protein. Some binding calls cover weakened binding; strength is not graded here. For some of these results: Tags and fused reporters may be left off the sequences shown. Values belong to the binder of their own block, whether it stands above or below them.
Tests used:
[1] = target: GST-tagged wild-type NEDD4-1 (UniProt P46934); experiment: GST pull-down of GST-NEDD4-1 with lysate of cells expressing His-p34 (FIG. 10)
[2] = target: neuronal precursor cell-expressed developmentally down-regulated 4-1 (NEDD4-1), endogenous, in lysates of human cell lines (human) (UniProt P46934); experiment: immunoprecipitation and Western blotting in cancer cell lines
[3] = target: neuronal precursor cell-expressed developmentally down-regulated 4-1 (NEDD4-1), endogenous, in lysates of human cell lines (human) (UniProt P46934); experiment: reciprocal co-immunoprecipitation of endogenous proteins and Western blotting (FIGS. 3 and 4)
[4] = target: T7-tagged wild-type NEDD4-1 (UniProt P46934); experiment: GST pull-down of purified GST-p34 with lysates of 293 cells expressing T7-tagged NEDD4-1 (FIG. 9)
[5] = target: T7-tagged wild-type NEDD4-1 (UniProt P46934); experiment: GST pull-down with purified GST-p34, immunoblot with anti-GST and anti-T7 antibodies (FIG. 7)
[6] = target: T7-tagged wild-type NEDD4-1 (UniProt P46934); experiment: GST pull-down, conclusion of Example 1-3
[7] = target: myc-tagged NEDD4-1 (UniProt P46934); experiment: co-immunoprecipitation from transfected 293 cells, immunoblotting (FIG. 6)

Amino acid sequences for entries named in this document (tags omitted). A change or cut given only in a name is not applied to a line headed by its entry. Chains listed by the source or under a name are the forms on record and can include a tag or linker.
myc-tagged NEDD4-1 (P46934, form named): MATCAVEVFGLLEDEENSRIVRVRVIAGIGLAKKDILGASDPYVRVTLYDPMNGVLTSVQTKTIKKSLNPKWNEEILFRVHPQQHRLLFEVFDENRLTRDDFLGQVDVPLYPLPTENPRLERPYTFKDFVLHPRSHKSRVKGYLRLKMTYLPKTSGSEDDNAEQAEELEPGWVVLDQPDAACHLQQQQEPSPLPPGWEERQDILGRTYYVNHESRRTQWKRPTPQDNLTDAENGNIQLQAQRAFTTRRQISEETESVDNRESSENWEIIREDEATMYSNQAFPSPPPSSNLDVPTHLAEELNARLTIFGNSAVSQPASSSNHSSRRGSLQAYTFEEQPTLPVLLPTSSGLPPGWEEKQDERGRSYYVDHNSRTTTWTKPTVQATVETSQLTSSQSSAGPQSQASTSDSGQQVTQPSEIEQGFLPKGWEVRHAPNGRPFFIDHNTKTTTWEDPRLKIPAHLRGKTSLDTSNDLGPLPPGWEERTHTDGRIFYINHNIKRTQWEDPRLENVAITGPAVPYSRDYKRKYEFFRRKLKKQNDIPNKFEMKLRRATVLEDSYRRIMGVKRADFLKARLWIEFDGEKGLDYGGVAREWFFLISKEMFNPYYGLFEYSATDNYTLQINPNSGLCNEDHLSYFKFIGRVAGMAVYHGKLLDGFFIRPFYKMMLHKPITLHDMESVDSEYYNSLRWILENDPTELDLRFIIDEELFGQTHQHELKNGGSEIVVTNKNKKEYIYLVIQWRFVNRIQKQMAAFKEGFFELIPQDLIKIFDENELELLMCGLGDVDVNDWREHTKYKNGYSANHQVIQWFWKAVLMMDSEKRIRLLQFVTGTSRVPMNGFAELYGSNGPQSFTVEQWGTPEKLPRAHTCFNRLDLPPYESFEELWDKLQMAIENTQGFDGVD

- binding [1]: binds
B1: His-tagged p34 (other, UniProt Q9UHV2 1-236, looked up)
chain: MLSKGLKRKREEEEEKEPLAVDSWWLDPGHTAVAQAPPAVASSSLFDLSVLKLHHSLQQSEPDLRHLVLVVNTLRRIQASMAPAAALPPVPSPPAAPSVADNLLASSDAALSASMASLLEDLSHIEGLSQAPQPLADEGPPGRSIGGAAPSLGALDLLGPATGCLLDDGLEGLFEDIDTSMYDNELWAPASEGLKPGPEDGPGKEEAPELDEAELDYLMDVLVGTQALERPPGPGR
notes: Expressed in cells and used as lysate; also called His-p34; not shown: His tag

- binding [7]: binds
B4: GFP-tagged p34 (protein, UniProt Q9UHV2 1-236, looked up, not shown: large carriers)
chain: B1 chain

The next lines start with the binder.

B2: p34 protein (endogenous, in lysates of human cancer cell lines) (protein, UniProt Q9UHV2 1-236, looked up)
chain: B1 chain
- binding [2]: binds
- binding [3]: binds

B3: GST-p34 protein (protein, UniProt Q9UHV2 1-236, looked up, not shown: a dimerising Fc or GST)
chain: B1 chain
- binding [4]: binds
- binding [5]: binds
- binding [6]: binds

Reference: US9752151B2, “Composition for treatment or metastasis suppression of cancers which includes p34 expression inhibitor or activity inhibitor as active ingredient” (THE ASAN FOUNDATION, priority 2013, dated 2017)
